According to patent publication US20230270805A1, “A COMPOSITION COMPRISING AN EXTRACT OF ALDER TREE OR THE ISOLATED COMPOUNDS THEREFROM FOR TREATING AND PREVENTING SKELETON MUSCLE-RELATED DISORDER AND THE USE THEREOF” (Sookmyung Women's University Indusutry-Academic Cooperation …, priority 2020, published 2023):
At least one compound was matched to its structure with a doubt left.

Experiments:
Type in all cases: in vivo, mouse
C57/BL6 mice [1] = test: Treadmill test in dexamethasone animal model of muscle loss; details: dexamethasone 1 mg/kg s.c. alone; 4 weeks; listed as dexamethasone
Protocol: (§1) Dexamethasone, a synthetic glucocorticoid, was injected subcutaneously into C57/BL6 mouse mice to establish an animal model of muscle loss and following experiment was performed.
(§2) To establish an in vivo model of muscle loss, 6 weeks-old male C57/BL6 mice (Raon Bio, 6 weeks old, weight range: 32-36 g) were acclimated for one-week, and then weighed animals determined to be healthy during the acclimatization period. The mice close to the average weight were selected using a simple random sampling method and were classified into five groups, namely, (a) a control group, (b) a muscle loss control group (treated with dexamethasone 1 mg/kg), (c) test sample group treated with inventive extract 250 mg/kg and dexamethasone, (d) test sample group treated with inventive extract 500 mg/kg and dexamethasone, and (e) positive control treated with oxymetholone (Celltrion Co. Ltd, ATC #A14AA05, 10 mg/kg) and dexamethasone.
(§3) The inventive Extract and oxymetholone were administered once to the mice daily for 4 weeks and dexamethasone was injected subcutaneously for 10 days from 10 days before the end of co-treatment of inventive extract and oxymetholone. […]

[2] = Body weight in dexamethasone animal model of muscle loss; details: dexamethasone 1 mg/kg s.c. alone; 4 weeks; listed as dexamethasone
Protocol: as §1, §2, §3
The body weight of every animal was measured once a week for 4 weeks from the day of inventive extract administration.

C57/BL6 mice [3] = test: Grip strength test in dexamethasone animal model of muscle loss; details: dexamethasone 1 mg/kg s.c. alone; 4 weeks; listed as dexamethasone
Protocol: as §1
as §2, with “dexamethasone. […]” for “dexamethasone.”
The grip strength of mice was determined as follows; after grabbing the animal's tail and placing it on the grid, the front foot and body were pulled at the same speed until the front foot and body were held at the grid with the front paw, and the average value was calculated after three experimental repetitions. […]

C57/BL6 mice [4] = test: Weight of muscle mass, epididymal fat and liver in dexamethasone animal model of muscle loss; details: dexamethasone 1 mg/kg s.c. alone, autopsy at 4 weeks, listed as dexamethasone
Protocol: as §1, §2, §3

For `C[C@@H]1C[C@H]2[C@@H]3CCC4=CC(=O)C=C[C@]4(C)[C@@]3(F)[C@@H](O)C[C@]2(C)[C@@]1(O)C(=O)CO` [Dexa, dexamethasone], the “motility (treadmill)” value (C57/BL6 mice [1]) was “decreased motility”, the body weight [2] was “no change in body weight” and the grip strength (C57/BL6 mice [3]) was “decreased grip strength”. The “absolute weight, calf muscle” value (C57/BL6 mice [4]; gastrocnemius) was “significant decrease” and the “absolute weight, fluke muscle” value (C57/BL6 mice [4]; soleus) was “significant decrease”.
